This is an account of results in patent US10501780B2, “Compositions for in situ nucleic acid analysis” (APPLIED BIOSYSTEMS, LLC, priority 2007, dated 2019).

The data set is described as follows: FAM background fluorescence and Rn in qPCR amplification plots with surfactants. To be noted: surfactant 0.01% to 1%; FAM fluor, MGB quencher.

Consider “dodecyl alcohol polyoxyethylene ether [THESIT™]”, for which the “background fluorescence (Ro), FAM” value is “increased” and the “effect on Rn (fluorescence corrected to ROX)” value is “little effect”.
The corresponding values for “octylphenol ethoxylate having an average of 9.5 ethoxylate groups [TRITON X-100™]” are “increased” and “decreased”.
On the same counts, the results for “octylphenolpoly(ethyleneglycolether) [NONIDET P-40™]” are “increased” and “decreased”.
